Results are given in words; binding and its absence hold for the method and conditions named. In cells and extracts the contact can be indirect. Some results given as binding are weak or reduced against the parent protein; the word gives no strength.
Target: T1, peroxiredoxin 5 (mouse (endogenous in C2C12)) (UniProt P99029)
T1 sequence: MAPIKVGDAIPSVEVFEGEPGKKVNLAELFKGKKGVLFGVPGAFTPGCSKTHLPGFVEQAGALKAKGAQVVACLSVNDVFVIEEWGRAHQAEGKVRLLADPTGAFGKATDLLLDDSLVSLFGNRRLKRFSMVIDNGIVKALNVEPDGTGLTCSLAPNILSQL
Assay: co-IP; C2C12 myotube lysates mixed with the indicated antibody and protein A/G-agarose beads, 4 h at 4°C; PRDX5 precipitated, Nrf2 and UNG1 detected by Western blotting; cells treated with TBHP with or without myricanol (MY)

- binding: binds
B1: Nrf2 (protein, UniProt Q60795 1-597)
chain: MMDLELPPPGLQSQQDMDLIDILWRQDIDLGVSREVFDFSQRQKDYELEKQKKLEKERQEQLQKEQEKAFFAQFQLDEETGEFLPIQPAQHIQTDTSGSASYSQVAHIPKQDALYFEDCMQLLAETFPFVDDHESLALDIPSHAESSVFTAPHQAQSLNSSLEAAMTDLSSIEQDMEQVWQELFSIPELQCLNTENKQLADTTAVPSPEATLTEMDSNYHFYSSISSLEKEVGNCGPHFLHGFEDSFSSILSTDDASQLTSLDSNPTLNTDFGDEFYSAFIAEPSDGGSMPSSAAISQSLSELLDGTIEGCDLSLCKAFNPKHAEGTMEFNDSDSGISLNTSPSRASPEHSVESSIYGDPPPGFSDSEMEELDSAPGSVKQNGPKAQPAHSPGDTVQPLSPAQGHSAPMRESQCENTTKKEVPVSPGHQKAPFTKDKHSSRLEAHLTRDELRAKALHIPFPVEKIINLPVDDFNEMMSKEQFNEAQLALIRDIRRRGKNKVAAQNCRKRKLENIVELEQDLGHLKDEREKLLREKGENDRNLHLLKRRLSTLYLEVFSMLRDEDGKPYSPSEYSLQQTRDGNVFLVPKSKKPDTKKN

Source: paper PMC11167181
